Data as given in PubChem BioAssay AID1224828 (NIAID, 2016)
Test: 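Knock-downs that increase or decrease LPS-induced p65 nuclear translocation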 (primary screen). System: mouse RAW264.7 G9 macrophage reporter cells (GFP-p65, Tnf promoter-mCherry). Reagents: siRNA pool against mouse genes, 100 nM. Time to read-out: 2 days siRNA transfection, then 40 min LPS before fixation. Treatment: LPS (Salmonella minnesota R595) at 10 ng/ml. Measurement: 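Microscopy ratio of nuclear to perinuclear-ring GFP-p65 signal, scaled to the plate median; gene score is the average of two replicate robust z-scores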. Direction: p65 translocation robust z-score: higher = more nuclear NF-kappaB p65 after LPS than the plate median; nuclear/cytoplasmic p65 ratio: higher = more nuclear NF-kappaB p65. Call rule: 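Called active when z exceeds 3.3 or falls under -1.56 (median of Tlr4 controls), giving activity score of at least 50; no calls for control wells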. Calls: active = hit (p65 shift raised or lowered); inactive = no clear change.
Shown is a random part of about 17,000 deposited reagents. Over the whole deposit, 762 (4.5%) are marked active. 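Active calls include both raised and lowered p65 entry, mostly lowered; wells with fewer than 50 cells lack a z-score.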 Raw values are not corrected between plates.

Vmn1r217 (vomeronasal 1 receptor 217): p65 translocation robust z-score = -2.82; nuclear/cytoplasmic p65 ratio, rep 1 = 1.02; nuclear/cytoplasmic p65 ratio, rep 2 = 0.992; low cell count flag = enough cells to score; activity call = active
Or10v1 (olfactory receptor family 10 subfamily V member 1): p65 translocation robust z-score = 1.04; nuclear/cytoplasmic p65 ratio, rep 1 = 1.79; nuclear/cytoplasmic p65 ratio, rep 2 = 1.54; low cell count flag = enough cells to score; activity call = inactive
Rgs9bp (regulator of G-protein signalling 9 binding protein): nuclear/cytoplasmic p65 ratio, rep 1 = 1.32; nuclear/cytoplasmic p65 ratio, rep 2 = 1.03; low cell count flag = fewer than 50 cells per well; well left out of scoring; activity call = inactive
Hbb-y (hemoglobin Y, beta-like embryonic chain): p65 translocation robust z-score = 0.54; nuclear/cytoplasmic p65 ratio, rep 1 = 1.45; nuclear/cytoplasmic p65 ratio, rep 2 = 1.63; low cell count flag = enough cells to score; activity call = inactive
Nfe2l1 (nuclear factor, erythroid derived 2,-like 1): p65 translocation robust z-score = -0.56; nuclear/cytoplasmic p65 ratio, rep 1 = 1.3; nuclear/cytoplasmic p65 ratio, rep 2 = 1.34; low cell count flag = enough cells to score; activity call = inactive
Atp11b (ATPase, class VI, type 11B): p65 translocation robust z-score = 0.07; nuclear/cytoplasmic p65 ratio, rep 1 = 1.66; nuclear/cytoplasmic p65 ratio, rep 2 = 1.59; low cell count flag = enough cells to score; activity call = inactive
Abhd8 (abhydrolase domain containing 8): p65 translocation robust z-score = -0.96; nuclear/cytoplasmic p65 ratio, rep 1 = 1.49; nuclear/cytoplasmic p65 ratio, rep 2 = 1.45; low cell count flag = enough cells to score; activity call = inactive
Uba1 (ubiquitin-like modifier activating enzyme 1): p65 translocation robust z-score = -0.25; nuclear/cytoplasmic p65 ratio, rep 1 = 1.49; nuclear/cytoplasmic p65 ratio, rep 2 = 1.46; low cell count flag = enough cells to score; activity call = inactive
Araf (Araf proto-oncogene, serine/threonine kinase): nuclear/cytoplasmic p65 ratio, rep 1 = 1.35; nuclear/cytoplasmic p65 ratio, rep 2 = 1.3; low cell count flag = fewer than 50 cells per well; well left out of scoring; activity call = inactive
Zic3 (zinc finger protein of the cerebellum 3): p65 translocation robust z-score = -1.56; nuclear/cytoplasmic p65 ratio, rep 1 = 1.43; nuclear/cytoplasmic p65 ratio, rep 2 = 1.25; low cell count flag = enough cells to score; activity call = inactive
Or8u8 (olfactory receptor family 8 subfamily U member 8): p65 translocation robust z-score = 0.3; nuclear/cytoplasmic p65 ratio, rep 1 = 1.46; nuclear/cytoplasmic p65 ratio, rep 2 = 1.3; low cell count flag = enough cells to score; activity call = inactive
Slc30a3: p65 translocation robust z-score = -0.16; nuclear/cytoplasmic p65 ratio, rep 1 = 1.46; nuclear/cytoplasmic p65 ratio, rep 2 = 1.53; low cell count flag = enough cells to score; activity call = inactive
